PubChem BioAssay AID1259254 – NCATS – 2017
This is one part, drawn at random, of about 59,000 reagents tested. About 1,550 of all reagents (2.6%) were called active. 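G2 share is only a proxy for re-replication; each gene was hit by three separate siRNAs, and active genes were retested.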 Raw values vary from plate to plate and are shown uncorrected. Reagents against one gene are numbered here. Not stated in the record: the amount of reagent.

Aim: 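Gene knock-downs that lead to re-replication, shown by excess G2 DNA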 (primary screen)
System: human HCT116 colorectal cancer cells
Knock-down reagent: single siRNA against human genes
Time to read-out: 3 days
Measured: 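Imaged Hoechst DNA stain sorts each cell into a cycle phase by DNA amount; per plate, G2 fraction set to 0% for non-targeting and 100% for GMNN siRNA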
Scale: G2 robust z-score and G2 cells, % of GMNN control: higher = more G2 cells, more excess DNA replication; raw share of cells in G2: higher = larger share of cells with G2 DNA content
Hit rule: 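An siRNA counts as active if its G2 robust z-score lies at least 5 MADs above the screen median; here such calls match roughly 38% of GMNN control or more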

no.	target gene	siRNA no.	G2 robust z-score	G2 cells, % of GMNN control	raw share of cells in G2 (%)	activity call
1	LOC646629	1	4.1	31.8	15	inactive
2	LOC646629	2	-0.679	-1.81	2.47	inactive
3	LOC646629	3	-0.0477	2.63	4.77	inactive
4	H3-4	1	-0.188	1.64	5.86	inactive
5	H3-4	2	1.31	12.2	8.74	inactive
6	H3-4	3	0.216	4.49	4.94	inactive
7	SIAH3	1	1.61	14.3	8.87	inactive
8	SIAH3	2	1.74	15.2	8.92	inactive
9	SIAH3	3	-0.873	-3.17	2.3	inactive
10	TMC7	1	-1.03	-4.31	2.66	inactive
11	TMC7	2	1.17	11.2	9.19	inactive
12	TMC7	3	-0.915	-3.47	1.43	inactive
13	PDCD1	1	3.37	26.7	16.3	inactive
14	PDCD1	2	3.08	24.6	13.9	inactive
15	PDCD1	3	0.315	5.19	5.23	inactive
16	CHRM4	1	-1.17	-5.25	3.97	inactive
17	CHRM4	2	-0.811	-2.74	3.56	inactive
18	CHRM4	3	1.39	12.7	7.17	inactive
19	FHDC1-AS1	1	-0.177	1.72	3.8	inactive
20	FHDC1-AS1	2	-0.0662	2.5	5.08	inactive
21	FHDC1-AS1	3	-0.132	2.04	3.91	inactive
22	GPR15	1	0.69	7.82	8.64	inactive
23	GPR15	2	-0.32	0.719	4.77	inactive
24	GPR15	3	1.38	12.7	7.16	inactive
25	CLIP2	1	-0.225	1.38	5.75	inactive
26	CLIP2	2	0.359	5.49	6.07	inactive
27	CLIP2	3	-0.628	-1.45	2.84	inactive
28	CTNNA2	1	4.5	34.6	17.3	inactive
29	CTNNA2	2	-0.0109	2.89	6.05	inactive
30	CTNNA2	3	1.58	14.1	8.95	inactive
